{"source": "PubChem BioAssay AID504467", "about": "(National Center for Advancing Translational Sciences (NCATS), 2011)", "note": "In all, about 330,000 compounds went through this assay and about 7,700 (2.3%) were called active. This list was built around the results that the source calls inconclusive (neither active nor inactive); the mix of calls is not that of the screen. Calls come from the whole dose curve; as a rule, active = well fitted inhibition curve with a large enough effect; inconclusive = small, poorly fitted or top-dose-only effect, or effect the other way; inactive = flat fitted curve, though single readings scatter. Potencies beside an inconclusive call are fits to weak or partial responses and may not hold up. % is set by controls: 0 for no effect and ±100 for the full control effect; potency is the fitted concentration of half-maximal effect.", "data": [{"assay": "qHTS screen for small molecules that inhibit ELG1-dependent DNA repair in human embryonic kidney (HEK293T) cells expressing luciferase-tagged ELG1; note: nearly all actives have a fitted effect of over 55% in size", "settings": "HEK293T ELG1-luciferase reporter, luminescence, 16 h, DNA damage induced by 5-fluorouridine; activity change, negative = inhibition: at 46.1 µM (top of the series)", "outline": "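Luminescence from the luciferase reporter, measured 30 min after ONE-Glo reagent at room temperature, was the read-out. Beforehand, 2,000 cells per well were exposed for 16 hr at 37 °C to 5-fluorouridine together with compound or vehicle.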", "values": [{"compound": "COc1ccc(-c2cc(C(=O)OCc3ccccn3)c3ccccc3n2)cc1", "Potency": "inconclusive: 29.1 µM [inhibitor, single point]"}, {"compound": "O=C(CSc1nc2ncc(Cl)cc2[nH]1)Nc1cccc(F)c1", "Potency": "inconclusive: 20.6 µM [inhibitor, single point]"}, {"compound": "C[C@H](CO)N1C[C@H](C)[C@@H](CN(C)C(=O)Nc2ccc(C(F)(F)F)cc2)Oc2c(NC(=O)NC3CCCCC3)cccc2C1=O", "Potency": "inconclusive: 4.11 µM [inhibitor, full curve]"}, {"compound": "Cc1ccc(-n2c(C)cc(C(=O)CSc3nnc4ccccn34)c2C)cc1", "Potency": "inconclusive: 2.59 µM [activator, partial curve]"}, {"compound": "CCN1C(=O)c2cccc3c(S(=O)(=O)Nc4ccccn4)ccc1c23", "Potency": "inconclusive: 13 µM [activator, partial curve]"}, {"compound": "CCOc1ccc(NC(=O)Nc2cc(C(C)C)c(O)cc2C)cc1", "Potency": "inconclusive: 29.1 µM [inhibitor, single point]"}, {"compound": "FC(F)(F)Oc1ccc(Nc2nc(N3CCOCC3)nc(N3CCOCC3)n2)cc1", "Potency": "inconclusive: 2.91 µM [inhibitor, full curve]"}, {"compound": "CCOC(=O)c1c(CSc2ccccc2)n(C)c2ccc(O)c(CN3CCN(C)CC3)c12", "Potency": "inconclusive: 16.4 µM [inhibitor, partial curve, poor fit]"}, {"compound": "O=C1CC(Nc2ccccc2)C(=O)N1c1ccc(N2CCOCC2)cc1", "note": "(configuration not stated)", "Potency": "inconclusive: 20.6 µM [activator, partial curve, poor fit]"}, {"compound": "Cc1cccc(NC(=O)c2ccc([N+](=O)[O-])s2)c1C", "Potency": "inconclusive: 29.1 µM [inhibitor, single point]"}, {"compound": "COc1ccc(CC(=O)NNC(=S)Nc2ccccc2)cc1Br", "activity change, negative = inhibition": "inactive: -0.733%"}, {"compound": "COc1cc(/C=N/NC(=O)CSc2ccccn2)ccc1OC(C)C", "Potency": "inconclusive: 14.6 µM [activator, partial curve]"}, {"compound": "N/C(Cn1cncn1)=N\\NC(=O)C(=O)Nc1cccc(C(F)(F)F)c1", "activity change, negative = inhibition": "inactive: 0%"}, {"compound": "Cc1cnc(C(=O)OCc2nc3ccsc3c(=O)[nH]2)cn1", "activity change, negative = inhibition": "inactive: -6.99%"}, {"compound": "c1nc(NC2CCCCCC2)c2[nH]cnc2n1", "Potency": "inconclusive: 29.1 µM [inhibitor, partial curve, poor fit]"}, {"compound": "COc1cccc(-c2ccc(C#N)c(OC(=O)c3ccc(Cl)cc3)n2)c1", "Potency": "inconclusive: 29.1 µM [activator, partial curve, poor fit]"}, {"compound": "CCc1ccccc1NC(=O)c1cccc(Oc2ccc([N+](=O)[O-])cc2Cl)c1", "activity change, negative = inhibition": "inactive: -29.1%"}, {"compound": "COc1ccc(S(=O)(=O)Nc2ccc3c(c2)CCC3)cc1", "Potency": "inconclusive: 14.6 µM [inhibitor, partial curve]"}, {"compound": "Cc1ccc(S(=O)(=O)c2cc3c(=O)n4ccccc4nc3n(CC3CCCO3)c2=N)cc1C", "note": "(configuration not stated)", "activity change, negative = inhibition": "inactive: 7.02%"}, {"compound": "COc1cc2c(cc1OC)CN(C(=O)c1cc3ccccc3oc1=O)CC2", "activity change, negative = inhibition": "inactive: -24%"}, {"compound": "O=S(=O)(Nc1cccc(-c2ccc(N3CCCCCC3)nn2)c1)c1ccccc1Cl", "activity change, negative = inhibition": "inactive: 22.6%"}, {"compound": "C=CCn1c(=O)c(CCC(=O)Nc2ccc(N3CCOCC3)cc2)nc2cc(C(F)(F)F)ccc21", "Potency": "inconclusive: 5.17 µM [inhibitor, full curve]"}, {"compound": "Cc1ccnc(N2CCCC(C(=O)Nc3cccc(C)c3C)C2)n1", "note": "(configuration not stated)", "activity change, negative = inhibition": "inactive: 6.75%"}, {"compound": "O=C(Nc1nnc(-c2cc(Cl)ccc2Cl)o1)c1ccco1", "Potency": "inconclusive: 20.6 µM [activator, single point]"}, {"compound": "CCOC(=O)CCc1c(C)n(CC)c2cc(-c3ccccc3OC)nn2c1=O", "Potency": "inconclusive: 16.4 µM [inhibitor, partial curve]"}, {"compound": "CC(=O)Nc1ccc(C2CC(c3ccc(Cl)cc3)=NN2c2ccccc2)cc1", "note": "(configuration not stated)", "Potency": "inconclusive: 20.6 µM [inhibitor, single point]"}, {"compound": "O=C(CCNS(=O)(=O)c1cccc2nsnc12)NCCC1=CCCCC1", "Potency": "inconclusive: 9.2 µM [inhibitor, partial curve, poor fit]"}, {"compound": "CC(NC(=O)CN(C)CC(=O)Nc1ccc(Cl)c(C(F)(F)F)c1)c1ccccc1", "note": "(configuration not stated)", "Potency": "inconclusive: 11.6 µM [inhibitor, single point]"}, {"compound": "CCOc1ccccc1C(=O)NC1CCN(CC(=O)Nc2cc(OC)ccc2OC)CC1", "Potency": "inconclusive: 25.1 µM [inhibitor, single point]"}, {"compound": "O=C(CN(c1ccc(F)cc1)S(=O)(=O)c1ccc2c(c1)OCCO2)NCc1ccccc1", "activity change, negative = inhibition": "inactive: -10.2%"}, {"compound": "COc1ccc(CCC(=O)NNC(=O)c2ccc(F)cc2)cc1", "Potency": "inconclusive: 29.1 µM [activator, partial curve, poor fit]"}, {"compound": "Cc1cc(C(=O)N/N=C/c2ccccn2)n[nH]1", "Potency": "inconclusive: 23.1 µM [activator, partial curve]"}, {"compound": "COc1ccc(CNC(=O)C(=O)NCCC2CCCCN2S(=O)(=O)c2ccccc2)cc1", "note": "(configuration not stated)", "Potency": "inconclusive: 29.1 µM [inhibitor, single point]"}, {"compound": "COc1ccc2nc(NC(=O)CSc3nc4ccccc4o3)sc2c1", "Potency": "inconclusive: 20.6 µM [activator, partial curve]"}, {"compound": "Cc1cc(=O)[nH]c(SCC(=O)N2C(C)CCCC2C)n1", "note": "(configuration not stated)", "activity change, negative = inhibition": "inactive: -9.22%"}, {"compound": "O=C(c1cc(S(=O)(=O)N2CCOCC2)ccc1F)N(Cc1nnc(-c2ccccc2Cl)o1)C1CC1", "Potency": "inconclusive: 14.6 µM [inhibitor, partial curve]"}, {"compound": "Cc1ccc(S(=O)(=O)N2CCN(c3cnn(C)c(=O)c3Cl)CC2)cc1", "activity change, negative = inhibition": "inactive: 25.2%"}, {"compound": "O=C(Cc1sc(Nc2ccccc2)nc1-c1ccccc1)NCc1ccccn1", "Potency": "inconclusive: 18.3 µM [activator, partial curve]"}, {"compound": "C=C(C)CN(CC)C(=O)COc1ccc(S(=O)(=O)Nc2ccc(OC)cc2)cc1", "Potency": "inconclusive: 14.6 µM [inhibitor, partial curve, poor fit]"}, {"compound": "Cc1ccc(NC(=O)CN(C)C(=O)COc2ncnc3ccc(Br)cc23)cc1", "activity change, negative = inhibition": "inactive: 9.69%"}, {"compound": "COc1ccc(C(=O)Nc2cccc(C(C)=O)c2)cc1OC", "Potency": "inconclusive: 18.4 µM [activator, partial curve]"}, {"compound": "CN1CCN(Cc2cc(Cl)c3cccnc3c2OC(=O)c2cccs2)CC1", "Potency": "inconclusive: 25.9 µM [inhibitor, single point]"}]}]}
